Source: paper PMC11432454, “An Ingenane-Type Diterpene from Euphorbia kansui Promoted Cell Apoptosis and Macrophage Polarization via the Regulation of PKC Signaling Pathways” (International Journal of Molecular Sciences, 2024)

How the values were obtained:
MCF-7 cells = test: MTT assay, cell viability of MCF-7 cells; format: cell-based; settings: Homo sapiens, MCF7, n = 3
Protocol: (§1) 8 × 10^4 cells/well were incubated in 96T wells for 24 h, and the cells were treated with a drug-containing medium for a specified time. Cells were added 20 μL 0.5% MTT (Sigma, USA) to each well, continued to incubate at 37 °C for 3.5 h, then the medium was discarded and 150 μL of DMSO was added to each well to dissolve the purple formazan. The cells were shaken for 15 min at room temperature and read at 490 nm. Cell viability (%) = ([…])/(ODcontrol − ODblank) × 100%. IC50 (half maximal inhibitory concentration) was calculated by SPSS 27.0 software.

A549 cells = test: MTT assay, cell viability of A549 cells; format: cell-based; settings: Homo sapiens, n = 3
Protocol: as §1

IC50 (MCF-7 cells): 3.31 ± 1.01 µM
IC50 (A549 cells): 5.98 ± 2.06 µM
SMILES: COc1cccc2c1C(=O)c1c(O)c3c(c(O)c1C2=O)C[C@@](O)(C(=O)CO)C[C@@H]3O[C@H]1C[C@H](N)[C@H](O)[C@H](C)O1 [Adr, adriamycin, reference compound]
